# Laboratory results from the supplement of paper PMC6411743.
# ± gives the standard deviation of the averaged measurements. Only a part is listed here, and it is no random draw.
# Assays:
# Assay in all cases: NP40-soluble protein abundance relative to vehicle (solubility fold change) (ratio); higher = more soluble protein in presence of ATP
# [1] = target: T1, ACOX3 (UniProt O15254)
# T1 sequence (whole entry): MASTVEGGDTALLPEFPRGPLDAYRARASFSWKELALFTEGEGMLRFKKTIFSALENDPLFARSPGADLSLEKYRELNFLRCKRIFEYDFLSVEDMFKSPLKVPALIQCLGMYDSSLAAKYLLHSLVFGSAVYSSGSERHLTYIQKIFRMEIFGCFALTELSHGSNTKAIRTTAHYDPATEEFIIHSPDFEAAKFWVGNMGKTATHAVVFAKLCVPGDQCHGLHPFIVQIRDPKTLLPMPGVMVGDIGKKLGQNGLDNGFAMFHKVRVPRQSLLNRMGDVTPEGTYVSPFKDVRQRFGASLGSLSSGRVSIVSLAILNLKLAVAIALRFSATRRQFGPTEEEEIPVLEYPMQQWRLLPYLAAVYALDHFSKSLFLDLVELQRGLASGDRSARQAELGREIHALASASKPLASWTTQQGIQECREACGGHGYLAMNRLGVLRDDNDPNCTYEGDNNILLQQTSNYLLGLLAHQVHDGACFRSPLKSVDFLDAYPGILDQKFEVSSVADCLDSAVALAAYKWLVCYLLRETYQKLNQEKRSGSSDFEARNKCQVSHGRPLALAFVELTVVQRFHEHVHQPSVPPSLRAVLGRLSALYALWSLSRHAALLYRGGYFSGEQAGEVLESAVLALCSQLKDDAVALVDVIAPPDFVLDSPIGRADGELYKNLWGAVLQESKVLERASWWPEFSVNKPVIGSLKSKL
# How it was run: (§1)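 Jurkat crude lysate (Dounce-homogenised) was treated with eight concentrations from 0.1 to 10 mM for 10 min at room temperature, then 3 min at 37 °C. It was solubilised with 0.8% NP40 and benzonase (60 min, 4 °C) and ultracentrifuged, and the supernatant was TMT-labelled for LC-MS/MS. Intensities were vsn-normalised, and the value is the fold change against the NP40-processed vehicle per replicate, from three independent experiments.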
# [2] = target: T2, ADAM10 (UniProt O14672)
# T2 sequence (whole entry): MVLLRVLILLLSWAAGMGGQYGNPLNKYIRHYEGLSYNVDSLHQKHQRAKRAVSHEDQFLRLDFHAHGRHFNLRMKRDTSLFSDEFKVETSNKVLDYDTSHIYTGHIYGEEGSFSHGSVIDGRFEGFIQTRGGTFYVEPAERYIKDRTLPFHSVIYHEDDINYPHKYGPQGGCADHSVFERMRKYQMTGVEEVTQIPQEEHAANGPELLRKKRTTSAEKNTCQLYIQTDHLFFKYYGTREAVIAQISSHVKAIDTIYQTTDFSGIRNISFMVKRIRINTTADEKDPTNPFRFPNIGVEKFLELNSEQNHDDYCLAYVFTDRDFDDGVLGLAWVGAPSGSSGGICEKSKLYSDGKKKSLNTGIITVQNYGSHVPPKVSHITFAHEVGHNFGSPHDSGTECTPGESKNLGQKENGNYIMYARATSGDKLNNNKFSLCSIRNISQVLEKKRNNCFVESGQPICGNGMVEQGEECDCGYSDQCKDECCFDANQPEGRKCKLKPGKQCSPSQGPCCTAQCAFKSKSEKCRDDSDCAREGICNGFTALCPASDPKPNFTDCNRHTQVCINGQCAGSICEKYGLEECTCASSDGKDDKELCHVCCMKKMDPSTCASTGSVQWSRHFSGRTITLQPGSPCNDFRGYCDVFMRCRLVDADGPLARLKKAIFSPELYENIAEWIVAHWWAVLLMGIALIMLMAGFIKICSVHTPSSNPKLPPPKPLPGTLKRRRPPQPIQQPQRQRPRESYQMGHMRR
# How it was run: as §1
# [3] = target: T3, C2CD2L (UniProt O14523)
# T3 sequence (whole entry): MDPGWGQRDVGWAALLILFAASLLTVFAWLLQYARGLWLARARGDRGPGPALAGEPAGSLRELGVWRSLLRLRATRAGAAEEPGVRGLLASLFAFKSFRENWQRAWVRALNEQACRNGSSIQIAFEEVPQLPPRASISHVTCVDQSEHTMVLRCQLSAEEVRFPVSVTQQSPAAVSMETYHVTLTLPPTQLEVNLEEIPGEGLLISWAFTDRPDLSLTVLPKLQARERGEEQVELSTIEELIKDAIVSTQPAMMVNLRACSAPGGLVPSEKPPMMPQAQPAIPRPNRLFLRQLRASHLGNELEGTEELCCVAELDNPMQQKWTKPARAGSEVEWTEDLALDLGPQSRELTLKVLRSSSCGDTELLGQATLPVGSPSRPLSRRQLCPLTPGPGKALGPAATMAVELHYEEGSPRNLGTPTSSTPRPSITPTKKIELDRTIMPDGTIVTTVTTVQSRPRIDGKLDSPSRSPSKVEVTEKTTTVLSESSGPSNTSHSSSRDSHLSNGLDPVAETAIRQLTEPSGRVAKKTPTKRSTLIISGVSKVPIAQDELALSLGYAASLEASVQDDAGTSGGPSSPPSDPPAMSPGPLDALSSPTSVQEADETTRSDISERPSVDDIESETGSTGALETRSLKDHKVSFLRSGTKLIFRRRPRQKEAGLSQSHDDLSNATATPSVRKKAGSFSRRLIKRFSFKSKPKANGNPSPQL
# How it was run: as §1
# [4] = target: T4, FANCG (UniProt O15287)
# T4 sequence (whole entry): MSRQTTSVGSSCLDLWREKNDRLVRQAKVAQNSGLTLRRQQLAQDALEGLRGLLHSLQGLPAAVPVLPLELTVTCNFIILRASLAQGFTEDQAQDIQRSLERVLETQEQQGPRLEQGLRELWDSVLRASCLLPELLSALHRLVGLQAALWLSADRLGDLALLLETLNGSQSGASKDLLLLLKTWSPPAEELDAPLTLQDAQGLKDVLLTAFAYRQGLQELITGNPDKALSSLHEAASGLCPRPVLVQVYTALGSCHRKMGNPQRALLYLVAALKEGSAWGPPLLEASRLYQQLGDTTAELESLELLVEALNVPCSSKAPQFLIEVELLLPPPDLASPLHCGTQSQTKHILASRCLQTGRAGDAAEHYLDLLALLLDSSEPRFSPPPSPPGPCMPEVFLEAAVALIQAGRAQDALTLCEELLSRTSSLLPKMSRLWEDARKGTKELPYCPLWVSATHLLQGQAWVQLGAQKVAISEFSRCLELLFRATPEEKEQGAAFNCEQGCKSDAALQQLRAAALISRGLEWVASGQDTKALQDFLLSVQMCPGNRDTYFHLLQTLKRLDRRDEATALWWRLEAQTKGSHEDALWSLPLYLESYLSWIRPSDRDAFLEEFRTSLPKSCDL
# How it was run: as §1
# [5] = target: T5, HMGB3 (UniProt O15347)
# T5 sequence (whole entry): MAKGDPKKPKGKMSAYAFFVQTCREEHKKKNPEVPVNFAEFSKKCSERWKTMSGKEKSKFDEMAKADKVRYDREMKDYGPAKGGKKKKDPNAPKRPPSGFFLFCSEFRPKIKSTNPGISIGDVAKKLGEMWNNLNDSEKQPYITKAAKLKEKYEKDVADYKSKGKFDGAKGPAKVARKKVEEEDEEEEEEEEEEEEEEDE
# How it was run: as §1
# [6] = target: T6, LCMT2 (UniProt O60294)
# T6 sequence (whole entry): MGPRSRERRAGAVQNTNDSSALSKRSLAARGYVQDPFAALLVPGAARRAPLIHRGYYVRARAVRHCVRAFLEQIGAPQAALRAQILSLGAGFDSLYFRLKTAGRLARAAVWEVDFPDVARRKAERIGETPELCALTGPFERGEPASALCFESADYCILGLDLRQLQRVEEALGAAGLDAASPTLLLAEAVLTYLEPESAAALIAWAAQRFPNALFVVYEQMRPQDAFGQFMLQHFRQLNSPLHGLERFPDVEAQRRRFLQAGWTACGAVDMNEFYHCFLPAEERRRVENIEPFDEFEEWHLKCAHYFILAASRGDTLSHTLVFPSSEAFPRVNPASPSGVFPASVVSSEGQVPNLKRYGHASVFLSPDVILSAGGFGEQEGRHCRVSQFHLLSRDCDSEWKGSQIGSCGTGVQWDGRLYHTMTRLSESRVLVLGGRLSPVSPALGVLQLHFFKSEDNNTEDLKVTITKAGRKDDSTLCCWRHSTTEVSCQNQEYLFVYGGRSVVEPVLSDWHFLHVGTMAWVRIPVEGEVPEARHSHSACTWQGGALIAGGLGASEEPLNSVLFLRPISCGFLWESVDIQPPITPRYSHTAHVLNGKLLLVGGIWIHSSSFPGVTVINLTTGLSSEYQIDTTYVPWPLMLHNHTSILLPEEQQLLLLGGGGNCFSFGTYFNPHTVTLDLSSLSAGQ
# How it was run: as §1
compound,measurement,setting,value
Nc1ncnc2c1ncn2[C@@H]1O[C@H](COP(=O)(O)OP(=O)(O)OP(=O)(O)O)[C@@H](O)[C@H]1O [adenosine triphosphate],NP40-soluble protein abundance,[1]; concentration: 1mM,1 ± 0.068
same,NP40-soluble protein abundance,[1]; concentration: 2mM,0.999 ± 0.076
same,NP40-soluble protein abundance,[1]; concentration: 4mM,1.01 ± 0.073
same,NP40-soluble protein abundance,[1]; concentration: 6mM,0.982 ± 0.066
same,NP40-soluble protein abundance,[1]; concentration: 8mM,1.01 ± 0.041
same,NP40-soluble protein abundance,[1]; concentration: 10mM,0.985 ± 0.045
same,NP40-soluble protein abundance,[2]; concentration: 1mM,0.973 ± 0.024
same,NP40-soluble protein abundance,[2]; concentration: 2mM,0.984 ± 0.044
same,NP40-soluble protein abundance,[2]; concentration: 4mM,0.945 ± 0.043
same,NP40-soluble protein abundance,[2]; concentration: 6mM,0.979 ± 0.043
same,NP40-soluble protein abundance,[2]; concentration: 8mM,0.933 ± 0.037
same,NP40-soluble protein abundance,[2]; concentration: 10mM,0.949 ± 0.061
same,NP40-soluble protein abundance,[3]; concentration: 1mM,1 ± 0.13
same,NP40-soluble protein abundance,[3]; concentration: 2mM,1.05 ± 0.019
same,NP40-soluble protein abundance,[3]; concentration: 4mM,1.07 ± 0.028
same,NP40-soluble protein abundance,[3]; concentration: 6mM,1.05 ± 0.072
same,NP40-soluble protein abundance,[3]; concentration: 8mM,0.982 ± 0.031
same,NP40-soluble protein abundance,[3]; concentration: 10mM,1 ± 0.033
same,NP40-soluble protein abundance,[4]; concentration: 1mM,1.16 ± 0.053
same,NP40-soluble protein abundance,[4]; concentration: 2mM,1.05 ± 0.093
same,NP40-soluble protein abundance,[4]; concentration: 4mM,1.11 ± 0.22
same,NP40-soluble protein abundance,[4]; concentration: 6mM,0.927 ± 0.12
same,NP40-soluble protein abundance,[4]; concentration: 8mM,1.01 ± 0.22
same,NP40-soluble protein abundance,[4]; concentration: 10mM,1.09 ± 0.088
same,NP40-soluble protein abundance,[5]; concentration: 1mM,1.01 ± 0.26
same,NP40-soluble protein abundance,[5]; concentration: 2mM,0.915 ± 0.16
same,NP40-soluble protein abundance,[5]; concentration: 4mM,0.906 ± 0.2
same,NP40-soluble protein abundance,[5]; concentration: 6mM,0.951 ± 0.19
same,NP40-soluble protein abundance,[5]; concentration: 8mM,0.939 ± 0.085
same,NP40-soluble protein abundance,[5]; concentration: 10mM,0.78 ± 0.28
same,NP40-soluble protein abundance,[6]; concentration: 1mM,0.978 ± 0.078
same,NP40-soluble protein abundance,[6]; concentration: 2mM,1.02 ± 0.03
same,NP40-soluble protein abundance,[6]; concentration: 4mM,1.04 ± 0.032

# Some of the entries so far, tab-delimited:
compound	measurement	setting	value
Nc1ncnc2c1ncn2[C@@H]1O[C@H](COP(=O)(O)OP(=O)(O)OP(=O)(O)O)[C@@H](O)[C@H]1O [adenosine triphosphate]	NP40-soluble protein abundance	[1]; concentration: 8mM	1.01 ± 0.041
same	NP40-soluble protein abundance	[6]; concentration: 2mM	1.02 ± 0.03
